Reference: article PMC4339722, “Analysis of the Link between the Redox State and Enzymatic Activity of the HtrA (DegP) Protein from Escherichia coli” (PLoS ONE, 2015)
Where a chain is given by its changes, count along the chain named. Numbers in names are those of the source. Results are given in words; binding and its absence hold for the method and conditions named. Some entries that bind do so weakly or less than the wild type. Where a sequence is shown, tags or fusion partners need not be part of it. Each block holds one binder with its values, some of them ahead of it.

Biological target: T1, β-casein (UniProt P02666)
T1 sequence: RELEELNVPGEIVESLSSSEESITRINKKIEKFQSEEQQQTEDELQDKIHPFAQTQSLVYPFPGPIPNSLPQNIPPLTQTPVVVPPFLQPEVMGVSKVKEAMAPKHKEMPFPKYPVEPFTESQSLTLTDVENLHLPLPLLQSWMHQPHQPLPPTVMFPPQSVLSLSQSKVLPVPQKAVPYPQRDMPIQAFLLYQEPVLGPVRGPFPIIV
Assay: SPR; BIAcore 2000; β-casein immobilized on Sensor Chip CM7; HtrA variants 100, 150, 200, 250, 300 nM run over; HBS-EP (150 mM NaCl, 10 mM HEPES pH 7.4, 3 mM EDTA, 0.005% Surfactant P20); 15 μl/min, 30 μl injections; averaged affinity, binding parameters not calculated; both purified

binding: binds
B1: HtrA-C57A/C69A/S210A–6×His tag (ΔCys variant) (enzyme, UniProt P0C0V0 27-474)
chain: AETSSATTAQQMPSLAPMLEKVMPSVVSINVEGSTTVNTPRMPRNFQQFFGDDSPFAQEGSPFQSSPFAQGGQGGNGGGQQQKFMALGSGVIIDADKGYVVTNNHVVDNATVIKVQLSDGRKFDAKMVGKDPRSDIALIQIQNPKNLTAIKMADSDALRVGDYTVAIGNPFGLGETVTSGIVSALGRSGLNAENYENFIQTDAAINRGNAGGALVNLNGELIGINTAILAPDGGNIGIGFAIPSNMVKNLTSQMVEYGQVKRGELGIMGTELNSELAKAMKVDAQRGAFVSQVLPNSSAAKAGIKAGDVITSLNGKPISSFAALRAQVGTMPVGSKLTLGLLRDGKQVNVNLELQQSSQNQVDSSSIFNGIEGAEMSNKGKDQGVVVNNVKTGTPAAQIGLKKGDVIIGANQQAVKNIAELRKVLDSKPSVLALNIQRGDSTIYLLMQ

binding: binds
B2: HtrA-S210A–6×His tag (oxidized control variant) (enzyme, UniProt P0C0V0 27-474)
chain: B1 chain with A57C, A69C
modifications: disulfide bond Cys57-Cys69 (oxidized)
